{
  "source": "patent US10730815B2",
  "about": "“Method of producing purified stilbene compounds” (MORINAGA & CO., LTD., priority 2014, dated 2020)",
  "format_in_all_cases": "physicochemical",
  "key": {"[1]": {"assay": "Concentration of piceatannol in supernatant with α-CD solutions (HPLC)"}, "[2]": {"assay": "Precipitation of piceatannol by β-CD: concentration in supernatant (HPLC)", "conditions": "for Concentration of Pic in liquid: saturated Pic solution mixed 7:3, 25° C., 24 hours"}, "[3]": {"assay": "Precipitation of piceatannol by γ-CD: concentration in supernatant (HPLC)", "conditions": "for Concentration of Pic in liquid: saturated Pic solution mixed 7:3, 25° C., 24 hours"}},
  "note": "For at least one compound, name, drawing or mass did not settle the structure.",
  "data": [
    {"smiles": "Oc1cc(O)cc(/C=C/c2ccc(O)c(O)c2)c1", "note": "[Pic, piceatannol]", "values": [
      {"measurement": "Precipitation with α-CD", "setting": "[1]", "value": "does not precipitate"},
      {"measurement": "Precipitation with β-CD", "setting": "[2]", "value": "does not precipitate"},
      {"measurement": "Concentration of Pic in liquid", "setting": "[2]; β-CD 0 mg/mL final", "value": 940, "unit": "µg/mL"},
      {"measurement": "Concentration of Pic in liquid", "setting": "[2]; β-CD 1.0 mg/mL final", "value": 950, "unit": "µg/mL"},
      {"measurement": "Concentration of Pic in liquid", "setting": "[2]; β-CD 2.0 mg/mL final", "value": 950, "unit": "µg/mL"},
      {"measurement": "Concentration of Pic in liquid", "setting": "[2]; β-CD 3.0 mg/mL final", "value": 960, "unit": "µg/mL"},
      {"measurement": "Concentration of Pic in liquid", "setting": "[2]; β-CD 4.0 mg/mL final", "value": 950, "unit": "µg/mL"},
      {"measurement": "Concentration of Pic in liquid", "setting": "[2]; β-CD 5.0 mg/mL final", "value": 960, "unit": "µg/mL"},
      {"measurement": "Precipitation on addition of γ-CD", "setting": "[3]", "value": "leads to precipitation"},
      {"measurement": "Concentration of Pic in liquid", "setting": "[3]; γ-CD 0 mg/mL final", "value": 880, "unit": "µg/mL"},
      {"measurement": "Concentration of Pic in liquid", "setting": "[3]; γ-CD 12.8 mg/mL final", "value": 120, "unit": "µg/mL"},
      {"measurement": "Concentration of Pic in liquid", "setting": "[3]; γ-CD 25.7 mg/mL final", "value": 36, "unit": "µg/mL"},
      {"measurement": "Concentration of Pic in liquid", "setting": "[3]; γ-CD 32.1 mg/mL final", "value": 26, "unit": "µg/mL"},
      {"measurement": "Concentration of Pic in liquid", "setting": "[3]; γ-CD 38.5 mg/mL final", "value": 21, "unit": "µg/mL"},
      {"measurement": "Concentration of Pic in liquid", "setting": "[3]; γ-CD 51.3 mg/mL final", "value": 14, "unit": "µg/mL"},
      {"measurement": "Concentration of Pic in liquid", "setting": "[3]; γ-CD 64.2 mg/mL final", "value": 11, "unit": "µg/mL"}
    ]}
  ]
}
